Data published in US12116597B2, “Autophagy as a therapeutic target for intracranial aneurysm” (THE BOARD OF REGENTS OF THE UNIVERSITY OF TEXAS SYSTEM, priority 2022, dated 2024).
At least one structure is not confirmed: it was looked up by name or label, or the drawing left a doubt.

Tested on: Thsd1-deficient zebrafish
Experiment: Intracranial hemorrhage incidence in thsd1-MO zebrafish embryos treated with autophagy inhibitors
Format: in vivo
Conditions: thsd1-MO injected zebrafish embryos; added to embryo water at 1 dpf for 24 hours; 3-MA 10 mM, wortmannin 50 nM, verteporfin 1 uM; FIG. 11
Procedure: Anti-sense morpholinos against thsd1, atg5 or talin was injected into one-cell stage zebrafish singly or in combination to silence the gene accordingly. At day 2 to day 3, embryos will be checked under regular optical microscope. Embryos with intracranial hemorrhages will be counted and imaged by Olympus microscope.
To test the hypothesis that autophagy inhibition could treat intracranial hemorrhage in-vivo 80-120 different zebrafish animals genetically engineered as described in Table 5 were treated with three distinct autophagy inhibitors, namely, 3-MA, wortmannin, or verteporfin. Control (DMSO) or other known autophagy inhibitors including 3-MA (10 mM), wortmannin (50 nM), and verteporfin (1 uM) were added to embryo water at 1 dpf for 24 hours. All embryos were injected by thsd1-MO and the hemorrhagic incidence was counted under microscope. For each injection, around 80-120 embryos were injected. *p<0.05, **p<0.01, n.s. means not significant.
After significant effort in contacting individuals and sequencing the families shown in FIG. 1A, the present disclosure first identified THSD1 as a gene associated with sub-cranial hemorrhage. In specific cases, a single codon substitution was identified as responsible for the phenotype L5F, R460W, E466G, G600E, P639L, T653I, or S775P. […]

COC[C@H]1OC(=O)c2coc3c2[C@@]1(C)C1=C(C3=O)[C@@H]2CCC(=O)[C@@]2(C)C[C@H]1OC(C)=O [Wortmannin]
intracranial hemorrhage (hemorrhagic incidence counted under microscope): rescued intracranial hemorrhage
